Results reported in patent US20120021995A1 (published 2012).
Changes are numbered by the printed parent chain. Names and notes keep the numbering of the source. These are yes or no findings as the source states them, for the method shown. Some binding calls cover weakened binding; strength is not graded here. For part of these data: Where a sequence is shown, tags or fusion partners need not be part of it.

Sequences of proteins named here, by UniProt entry; tags and fusion partners are left off. A change or cut given only in a name is not applied to a line headed by its entry.
UniProt O14763: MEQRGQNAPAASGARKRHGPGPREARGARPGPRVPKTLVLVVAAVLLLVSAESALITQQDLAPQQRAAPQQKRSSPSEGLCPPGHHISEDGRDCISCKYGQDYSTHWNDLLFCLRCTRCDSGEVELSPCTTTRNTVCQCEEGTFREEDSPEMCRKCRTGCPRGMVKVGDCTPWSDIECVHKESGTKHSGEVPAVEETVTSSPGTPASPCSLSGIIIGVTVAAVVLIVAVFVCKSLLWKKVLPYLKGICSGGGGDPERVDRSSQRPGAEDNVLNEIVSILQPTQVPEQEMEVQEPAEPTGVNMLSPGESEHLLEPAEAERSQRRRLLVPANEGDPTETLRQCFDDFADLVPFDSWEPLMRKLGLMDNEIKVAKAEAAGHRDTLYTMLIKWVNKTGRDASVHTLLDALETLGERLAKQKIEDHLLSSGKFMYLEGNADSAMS

T1: recombinant human TRAIL R1 (DR4)/Fc chimera (human) (UniProt O00220)
T1 sequence: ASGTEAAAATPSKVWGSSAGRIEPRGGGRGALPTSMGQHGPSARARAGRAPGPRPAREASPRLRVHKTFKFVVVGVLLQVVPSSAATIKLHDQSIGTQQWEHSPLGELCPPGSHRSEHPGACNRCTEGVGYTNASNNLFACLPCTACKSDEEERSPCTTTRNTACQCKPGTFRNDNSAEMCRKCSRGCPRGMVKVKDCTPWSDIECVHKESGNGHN

B1: 029-15.B4H (designed binder)
chain: ALQTVCLKGTKVHMKCFLAFTQTKTFHEASEDCISRGGTLSTPQTGSENDALYEYLRQSVGNEAEIWLGLNELVTSRLWVDMTGARIAYKNWETEITAQPDGGVMQLGENCAVLSGAANGKWFDKRCRDQLPYICQFGIV
B2: 029-15.B11G (designed binder)
chain: B1 chain with V74G
B3: 029-15.B2H (designed binder)
chain: ALQTVCLKGTKVHMKCFLAFTQTKTFHEASEDCISRGGTLSTPQTGSENDALYEYLRQSVGNEAEIWLGLNRVLQRPVWVDMTGARIAYKNWETEITAQPDGGMVWSMENCAVLSGAANGKWFDKRCRDQLPYICQFGIV
B4: 029-15.A9B (designed binder)
chain: B3 chain with R72A, L74I, Q75R, V78L, V105K, W106Y, S107T
B5: 029-15.B11F (designed binder)
chain: B3 chain with L74M, Q75R, P77R, V78E, G103A, M104Q, V105L, W106M, S107A, M108L
B6: 029-15.A6C (designed binder)
chain: B3 chain with L74V, Q75R, R76L, P77S, V78E, V105L, S107A
B7: 029-15.B3G (designed binder)
chain: B3 chain with L74I, Q75S, R76A, M104Q, V105Q, S107A
B8: 029-15.B2B (designed binder)
chain: B3 chain with R72W, L74M, Q75R, V78L, M104S, V105M, W106G, S107W, M108R
B9: 029-15.A4E (designed binder)
chain: B1 chain with E72G, L73V, V74W, T75Q, R77F, L78P, V104L, M105G, Q106Y, G108R
B10: 029-15.B12G (designed binder)
chain: B3 chain with Q75R, V78Q, D101N, M104D, V105W, W106R, S107I, M108P
B11: 029-15.B4D (designed binder)
chain: B3 chain with R72P, L74M, Q75R, R76G, P77V, V78T, M104R, V105S, S107V, M108W
B12: 088-13.1H3 (peptide)
peptide: ACFPIMTLHCGGG
B13: 029-15.A4G (designed binder)
chain: ALQTVCLKGTKVHMKCFLAFTQTKTFHEASEDCISRGGTLSTPQTGSENDALYEYLRQSVGNEAEIWLGLNKRRWYGGWVDMTGARIAYKNWETEITAQPDGGVNTVRENCAVLSGAANGKWFDKRCRDQLPYICQFGIV
B14: 029-15.B1A (designed binder)
chain: B1 chain with E72G, L73R, V74L, T75K, S76G, R77I, L78G, V104R, M105P, L107W
B15: 029-15.A8E (designed binder)
chain: B1 chain with E72W, L73R, V74S, T75M, S76V, R77V, L78W, V104K, M105H, Q106T
B16: 029-15.A7F (designed binder)
chain: B1 chain with E72Q, T75V, S76Q, R77M, L78G, V104W, Q106T, L107V
B17: 029-15.A2E (designed binder)
chain: B1 chain with E72Q, S76V, R77G, L78P, Q106H, L107R, G108T
B18: 029-15.A11H (designed binder)
chain: B1 chain with E72H, L73I, V74F, T75I, S76D, R77W, L78G, Q106T, L107M
B19: 029-15.A7D (designed binder)
chain: ALQTVCLKGTKVHMKCFLAFTQTKTFHEASEDCISRGGTLSTPQTGSENDALYEYLRQSVGNEAEIWLGLNRAMLRSRWVDMTGARIAYKNWETEITAQPDGGRWFQGKNCAVLSGAANGKWFDKRCRDQLPYICQFGIV
B20: 029-15.B4F (designed binder)
chain: B19 chain with A73V, L75R, S77V, R78L, W105R, F106E, Q107T, G108M
B21: 029-15.B3E (designed binder)
chain: B1 chain with E72H, T75S, S76L, R77A, L78P, V104G, Q106H, L107Q, E109K
B22: 029-15.B11C (designed binder)
chain: B19 chain with A73V, M74W, L75R, R78L, R104H, W105L, F106V, Q107K, G108Q
B23: 029-15.B12H (designed binder)
chain: B19 chain with A73V, M74Q, S77P, D101E, R104F, W105R, F106R, Q107H, G108A
B24: 029-15.B10A (designed binder)
chain: B3 chain with L74I, Q75R, P77S, V78M, M104Q, V105K, S107M, M108A
B25: 029-15.B11A (designed binder)
chain: B19 chain with R72V, M74I, L75R, R78V, R104E, W105R, F106A, Q107H, G108S, K109E
B26: 029-15.A6B (designed binder)
chain: B3 chain with L74M, Q75M, V78R, V105W, W106G, S107A
B27: 029-15.A5A (designed binder)
chain: B19 chain with M74L, L75F, S77P, R104P, F106Y, Q107L, G108K, K109E
B28: 029-15.A9G (designed binder)
chain: B19 chain with A73V, L75R, S77P, R78L, W105G, F106Q, G108W, K109E
B29: 029-15.A3C (designed binder)
chain: EPPTQKPKKIVNAKKDVVNTKMFEELKSRLDTLAQEVALLKEQQALQTVCLKGTKVHMKCFLAFTQTKTFHEASEDCISRGGTLSTPQTGSENDALYEYLRQSVGNEAEIWLGLNRATLRPRWVDMTGARIAYKNWETEITAQPDGGKNCAVLSGAANGKWFDKRCRDQLPYICQFGIV
notes: ATRIMER; also called 4a8c
B30: 029-15.B3A (designed binder)
chain: ALQTVCLKGTKVHMKCFLAFTQTKTFHEASEDCISRGGTLSTPQTGSENDALYEYLRQSVGNEAEIWLGLNFRGWLRWWVDMTGARIAYKNWETEITAQPDDGARVLAENCAVLSGAANGKWFDKRCRDQLPYICQFGIV
B31: 029-15.A8G (designed binder)
chain: EPPTQKPKKIVNAKKDVVNTKMFEELKSRLDTLAQEVALLKEQQALQTVCLKGTKVHMKCFLAFTQTKTFHEASEDCISRGGTLSTPQTGSENDALYEYLRQSVGNEAEIWLGLNRAWLRPRWVDMTGARIAYKNWETEITAQPDGGTLVSGENCAVLSGAANGKWFDKRCRDQLPYICQFGIV
notes: ATRIMER; also called 1a7b
B32: 029-15.B3D (designed binder)
chain: EPPTQKPKKIVNAKKDVVNTKMFEELKSRLDTLAQEVALLKEQQALQTVCLKGTKVHMKCFLAFTQTKTFHEASEDCISRGGTLSTPQTGSENDALYEYLRQSVGNEAEIWLGLNELRTDGLWVDMTGARIAYKNWETEITAQPDGGVMRRSENCAVLSGAANGKWFDKRCRDQLPYICQFGIV
notes: ATRIMER; also called 9b3d
B33: 029-15.B9F (designed binder)
chain: B32 chain with E116K, L117R, R118V, T119W, D120Y, G121R, L122G, V148M, M149R, S152R
notes: ATRIMER; also called 2a1a
B34: 029-15.A1H (designed binder)
chain: B31 chain with W118V, T148W, L149V, V150L, S151G, E153K
notes: ATRIMER; also called 8b6b
B35: 29p61P1E11 (designed binder)
chain: EPPTQKPKKIVNAKKDVVNTKMFEELKSRLDTLAQEVALLKEQQALQTVCLKGTKVHMKCFLAFTQTKTFHEASEDCISRGGTLSTPQTGSENDALYEYLRQSVGNEAEIWLGLNGWLEGVGWVDMTGARIAYKNWETEITAQPDGGWPFSNENCAVLSGAANGKWFDKRCRDQLPYICQFGIV
notes: ATRIMER; also called 029-61.1E11
B36: 71p88P1G11 (designed binder)
chain: B35 chain with L118M, E119A, W148P, P149G, F150L, S151R, N152W
B37: 014-42.3D10 (designed binder)
chain: B35 chain with W117Y, V121Y, W148A, P149T, F150I, S151A, N152W
notes: ATRIMER
B38: 71p88P1B4 (designed binder)
chain: B35 chain with V121Y, W148A, P149E, F150R, S151A, N152W
B39: 014-42.3D11 (designed binder)
chain: B35 chain with V121A, P149H, F150W, S151R, N152W
notes: ATRIMER

Each binder was assayed against recombinant human TRAIL R2 (DR5)/Fc chimera (human) (UniProt O14763) (assay: phage ELISA on DR5/Fc).

binding | Binder
binds | B1
binds | B2
binds | B3
binds | B4
binds | B5
binds | B6
binds | B7
binds | B8
binds | B9
binds | B10
binds | B11
binds | B12
binds | B13
binds | B14
binds | B15
binds | B16
binds | B17

binding | Binder
binds | B18
binds | B19
binds | B20
binds | B21
binds | B22
binds | B23
binds | B24
binds | B25
binds | B26
binds | B27
binds | B28
binds | B29
binds | B30
binds | B31
binds | B32
binds | B33
binds | B34

The binders below were run against T1, recombinant human TRAIL R1 (DR4)/Fc chimera (human) (assay: phage ELISA on DR4/Fc).

binding | Binder
binds | B35
binds | B36
binds | B37
binds | B38
binds | B39
